Data: PubChem BioAssay AID1347426 (Functional Genomics Laboratory (NCATS/FGL), 2020)
Hit rate of the full screen: of about 31,000 sequences, about 1,400 (4.5%) were called active.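 How the source made its calls: active means median seed-adjusted z-score above 1 or below -1; inactive means the rest.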 This is one part of the list.

assay: Novel Modifiers of Survival Motor Neuron (SMN) Protein: Gene Identification via Genome-wide siRNA Screen; conditions: HEK293T SMN2-luciferase reporter, siRNA knockdown, 72 h; actives lie on both sides;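 further: luminescence tracks full-length SMN protein made from the SMN2 reporter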
Summary of the method: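 Genome-wide siRNA screen (10418 genes, 3 siRNAs each, 1 pmol per well) by reverse transfection in HEK293T cells stably carrying an SMN2-luciferase reporter; luminescence after 72 hours, normalized to negative-control siRNA, log10-transformed, MAD-scored.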

Sequence	median seed-adjusted z-score
GCAGGACUCAAGCAAGCUATT against STX12	inactive: -0.797
GGACGACCGUGUAUAGUUUTT against RFESD	inactive: -0.503
GAGGAAAGGUUACAUUAAATT against ALKBH8	inactive: -0.487
CGAUGUUGAAAGUACGGGATT against SLC39A4	inactive: 0.0304
GCUCAGCCGAAAGAAGUCATT against MSI2	inactive: 0.582
GGUCAUAUGUGACGAGGGATT against RAD54L	inactive: -0.393
CGCCAUCUGUGUAACUUCATT against CARD9	inactive: -0.325
GGCACGUCCAUUCCGAAGATT against CD82	inactive: 0.102
GGACCAGUCUGCCUAUGUATT against NXF5	inactive: -0.396
ACGUGUUUGCUUCCACAAATT against NEURL2	active: 1.39
CCAAGGACCUGGUCUGAAATT against CUGBP1	inactive: 0.086
GGGAGAAUAUGAGCCGAAATT against CNTN5	inactive: -0.236
CACCAAGCCUGACACCGUATT against EPHX1	inactive: 0
CGCAUCAUCUGUAUCCUUATT against GDI1	inactive: 0.198
GAAAAGGUUUUACAGCAAATT against HDAC4	inactive: -0.0988
GGUCAUUGACGAUUGCAUUTT against NUDT21	inactive: 0.0851
GCUCCGCAAAUGUGGUUGATT against ZNF714	inactive: 0
CGCUGUUAAACUUCACCUUTT against TSHZ3	inactive: 0.301
GGAGUGUAAUAAGUGCCGATT against MLL	inactive: 0.227
GAACCUAUCAAGAUGCGAATT against GUCY1A3	inactive: 0.187
CCGCACCAGUAAUCGGAAATT against MAST1	inactive: -0.0897
AACUGCUACUGAUAGGCAATT against RAB3D	inactive: 0.221

Sequence	median seed-adjusted z-score
GGCCUUGAUUGAGCAUGAATT against LYPLA2	inactive: 0.28
UCGUCUUUGUCACCCGAAATT against CCL5	inactive: 0.11
CCUCUUAAGUGUGCUGGAATT against MS4A4A	inactive: 0.296
GGGAAGAUACAAGAACUUATT against ATP6V1G3	inactive: 0.489
CACAUGUAAUUCAUACCUATT against ZNF28	inactive: 0.814
GCACGAAGCUUUCCCUGGATT against KRT78	inactive: 0.306
GGCUGACACUAGAGGACUATT against DHRS9	inactive: -0.0523
GAGCUAACAGAGGUGAUUATT against PPP2R2A	inactive: -0.596
GGAGUUCGACAGAUUCCUATT against PCAF	inactive: -0.00665
GACUUGUGAUACAAGCGUATT against RAD23B	inactive: 0.639
GGCCUUCAACGAGUUCUAUTT against MUC5B	inactive: 0.141
GGAUCGUGUCUAUGAUAUUTT against BRS3	inactive: 0.224
CCACGGAAGUUUCAGUACATT against COL6A3	inactive: 0.341
GAAUAGUUUGUAUAGUAUATT against MYCBP	inactive: -0.196
GAAAGACAGAUCAAGAUUUTT against HOXB7	inactive: -0.153
CCUUGGAAUUUAUACCGAATT against SETMAR	inactive: 0.191
CUAUCUUGGGUUUACCGUATT against CLK1	inactive: -0.436
GCCUGAGACGGAGCAAUGATT against RABEP2	inactive: -0.0546
CAGCUUAAGGGUAUAGUUATT against FGF13	inactive: 0.875
CGGGAUCACCCUCAACUAATT against MXRA5	inactive: 0.104
CCACAUCUAACAUCCGCAATT against ZNF76	inactive: -0.0395
GGGUCCAGUUCAAGACAUATT against LYPLA2	inactive: 0.28

Sequence	median seed-adjusted z-score
GGUCGAAGAUCAAUUUACATT against HMGCR	inactive: 0.00174
GGAGUAUAUUGAGUAUGGATT against CNOT1	active: 1.2
CCUUGCCUCUCUGACCCAUTT against EXOSC5	inactive: 0.109
GAAGGGUGAUUCUAAUAUUTT against GPR174	inactive: -0.324
GCCGCAUCUGCUAACCUUATT against PPP4R1	inactive: -0.911
CCAACAACAAAACCACUUATT against NDUFA12	inactive: -0.377
AGAGCCGGUUGAAAAGCAATT against CEBPG	inactive: -0.561
CACGAAAACUGGACAAAUUTT against CDC16	inactive: 0.106
CCCUUGAUCUAUCUGGGAATT against LRRC32	inactive: 0.0464
CAUCUACGAGGACUACGUATT against RGS19	inactive: 0.295
GAUACAGUCCAGAUCCUCATT against CBFA2T2	inactive: -0.201
CCACAGAUGUGCAUAAACATT against NFKB2	inactive: -0.132
GGACAACCAUCUUCAAAGATT against ZKSCAN5	inactive: -0.229
GCCAAAUGGCGACACCAGATT against GSC2	inactive: -0.0829
GCAGUUCGAGGUCAAGUUUTT against OAS3	inactive: 0.147
CAAAUUUACAUAGACGUAATT against ZNF195	inactive: 0.0753
CACUGAUUACAGAAAGAGATT against ZNF334	inactive: 0.611
GGUGUGGUACGGAAACUCATT against PRDM12	inactive: 0.245
GGAAAACCAUUGGAUAUAUTT against AQP4	inactive: -0.361
CCAUGAUGCCUUAACAUGUTT against ARHGDIA	inactive: 0.627
AAAGCGCAAUUGGUGGUAATT against DYNLT1	inactive: 0.764
CCAAGAUCCUCUUUCUGUUTT against G6PC3	inactive: -0.13

Sequence	median seed-adjusted z-score
GGACCAACCUGUAUAGGAATT against PPP1R16B	inactive: -0.892
CGAGCAGGGCUUUACGCAATT against SEMA3B	inactive: 0.000251
GCAAUGCACAGAUACUACATT against MTMR11	inactive: -0.0244
CCCUAUGCCUACUACCUGUTT against AMPD2	inactive: 0.214
CUUCCUCGGUGGAACACGATT against SCLY	inactive: 0.00396
GAUGUACGCGCAGUCCAAATT against MGAT4B	inactive: 0.0142
GGAAGAACCAGAGUGUGAATT against C1RL	inactive: -0.148
GAACUUUGAUAAUGGUGAUTT against FSTL1	inactive: 0.503
GGAGUUUCCUUAUCGAAGATT against FAT3	inactive: 0.246
GUGAAGAUGUGGUCCUGAATT against PTK2B	active: 1.71
CCUCCUACGUGAUCACAGATT against IRAK2	inactive: -0.06
CCACUGUAUCAAACCCGUUTT against LTBP2	inactive: 0.0496
CAACUUAUAAGUACAAGAATT against MMP20	inactive: 0.0623
CUACUUCGAGGACAAAGAATT against PLK2	inactive: -0.419
GGCCUUCAUUACUUGUAGATT against ZFP62	inactive: -0.255
CCAUAUCAGUGGGCUAUUUTT against SLC22A5	inactive: 0.349
GCGUGUAAAUUCUACUGCATT against RB1	inactive: 0.49
CUACAUUUACGGGAGCAAATT against POP4	inactive: -0.144
GAGAUUAACGAGACCAGAATT against LMNB1	inactive: 0.0619
GGAAAGCGGCCUUCAAGGATT against EFHD2	inactive: 0.874
GGGAAGCAGUCGAUAUUAUTT against MAPKAP1	inactive: -0.0499
GAAUGGACUUCCUCAGUAATT against SLC5A4	inactive: 0.602

Sequence	median seed-adjusted z-score
GAGCAUACAGCUUAGCAAATT against TLR7	inactive: 0.189
CUAAAGGACUUUUACGAUATT against TPCN1	inactive: 0.139
GCACUGCUCGUUUUCUAUATT against CD2	inactive: 0.00791
CAGACUCACCUUGACCUUATT against GLRA2	inactive: -0.927
GGACUUCCCUGAUGUGCUATT against LINGO1	inactive: -0.443
UCAUCUACACGCUCACCAATT against S1PR5	inactive: 0.301
GGUGAGAUGUGGUCUAUAUTT against HES7	inactive: -0.286
CUUCGGAACCUGUCGUAUATT against DHX57	inactive: -0.138
AGUCCAACAUCUCGCCCAATT against DUSP7	inactive: 0
CCGCUUGCACGUAUAGAUATT against HPCAL1	inactive: -0.00535
CAGCGAUUCGAGAAGGUUUTT against INPP5A	inactive: -0.00941
GGAUGUAAGUUGUCCAAUATT against SUZ12	active: -1.65
GUGUUUAUCAUGGACAACATT against TESSP5	inactive: 0
CCACCUUGUUCGACACCAATT against ZNF134	inactive: -0.0978
AGGUCACAGUGGGUCCGAATT against DGAT2	inactive: 0.195
GCAACUGUUUGAGAUAGCATT against GUF1	inactive: 0.119
GGAAGGGACGCACCAUUUATT against SAT2	inactive: -0.43
CGAAGGCUAGGAAUAGGAATT against NAT13	inactive: 0
GCAGGAUUCAGGUUGAACATT against SSX1	inactive: 0.0114

Taken from the results shown for reference:
Sequence	median seed-adjusted z-score
GCGUGUAAAUUCUACUGCATT against RB1	inactive: 0.49
CUACAUUUACGGGAGCAAATT against POP4	inactive: -0.144
GAGAUUAACGAGACCAGAATT against LMNB1	inactive: 0.0619
GGAAAGCGGCCUUCAAGGATT against EFHD2	inactive: 0.874
GGGAAGCAGUCGAUAUUAUTT against MAPKAP1	inactive: -0.0499
GAAUGGACUUCCUCAGUAATT against SLC5A4	inactive: 0.602
GAGCAUACAGCUUAGCAAATT against TLR7	inactive: 0.189
CUAAAGGACUUUUACGAUATT against TPCN1	inactive: 0.139
GCACUGCUCGUUUUCUAUATT against CD2	inactive: 0.00791
CAGACUCACCUUGACCUUATT against GLRA2	inactive: -0.927
GGACUUCCCUGAUGUGCUATT against LINGO1	inactive: -0.443
UCAUCUACACGCUCACCAATT against S1PR5	inactive: 0.301
GGUGAGAUGUGGUCUAUAUTT against HES7	inactive: -0.286
CUUCGGAACCUGUCGUAUATT against DHX57	inactive: -0.138
AGUCCAACAUCUCGCCCAATT against DUSP7	inactive: 0
CCGCUUGCACGUAUAGAUATT against HPCAL1	inactive: -0.00535
CAGCGAUUCGAGAAGGUUUTT against INPP5A	inactive: -0.00941
GGAUGUAAGUUGUCCAAUATT against SUZ12	active: -1.65
GUGUUUAUCAUGGACAACATT against TESSP5	inactive: 0
CCACCUUGUUCGACACCAATT against ZNF134	inactive: -0.0978
AGGUCACAGUGGGUCCGAATT against DGAT2	inactive: 0.195
GCAACUGUUUGAGAUAGCATT against GUF1	inactive: 0.119
